The supplement of paper PMC8728848
Some of the results follow.

Columns and labels:
Assay in all cases: glycan array binding signal (z-score within array); higher = stronger binding
Settings in all cases: glycan notation: IUPAC condensed, linker removed
[1] = molecular target: Gal(b1-4)GlcNAc(b1-2)Man(a1-6)[GlcNAc(b1-2)Man(a1-3)]Man(b1-4)GlcNAc(b1-4)GlcNAc
In short: (§1)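 The binding signal is a Z-score computed within each array. Data were drawn from 3228 arrays in the Consortium for Functional Glycomics database, restricted to those with a known protein sequence. Scores were averaged over arrays of the same protein sequence at different concentrations or buffers, and over linkers, and negative values can be taken as non-binding.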

[2] = molecular target: Gal(b1-4)GlcNAc(b1-2)Man(a1-6)[Man(a1-3)]Man(b1-4)GlcNAc(b1-4)GlcNAc
In short: as §1

[3] = molecular target: Gal(b1-4)GlcNAc(b1-2)[Gal(b1-4)GlcNAc(b1-4)]Man(a1-3)[Gal(b1-4)GlcNAc(b1-2)Man(a1-6)]Man(b1-4)GlcNAc(b1-4)GlcNAc
In short: as §1

[4] = molecular target: Gal(b1-4)GlcNAc(b1-2)[Gal(b1-4)GlcNAc(b1-4)]Man(a1-3)[Gal(b1-4)GlcNAc(b1-2)[Gal(b1-4)GlcNAc(b1-6)]Man(a1-6)]Man(b1-4)GlcNAc(b1-4)GlcNAc
In short: as §1

[5] = molecular target: Gal(b1-4)GlcNAc(b1-2)[Gal(b1-4)GlcNAc(b1-4)]Man(a1-3)[GlcNAc(b1-4)][Gal(b1-4)GlcNAc(b1-2)Man(a1-6)]Man(b1-4)GlcNAc(b1-4)GlcNAc
In short: as §1

[6] = molecular target: Gal(b1-4)GlcNAc(b1-2)[Gal(b1-4)GlcNAc(b1-4)]Man(a1-3)[GlcNAc(b1-4)][Gal(b1-4)GlcNAc(b1-2)[Gal(b1-4)GlcNAc(b1-6)]Man(a1-6)]Man(b1-4)GlcNAc(b1-4)GlcNAc
In short: as §1

[7] = molecular target: Gal(b1-4)GlcNAc(b1-2)[Gal(b1-4)GlcNAc(b1-6)]Man(a1-6)[Gal(b1-4)GlcNAc(b1-2)Man(a1-3)]Man(b1-4)GlcNAc(b1-4)GlcNAc
In short: as §1

[8] = molecular target: Gal(b1-4)GlcNAc(b1-2)[Gal(b1-4)GlcNAc(b1-6)]Man(a1-6)[Gal(b1-4)GlcNAc(b1-2)Man(a1-3)]Man(b1-4)GlcNAc(b1-4)[Fuc(a1-6)]GlcNAc
In short: as §1

[9] = molecular target: Gal(b1-4)GlcNAc(b1-2)[Gal(b1-4)GlcNAc(b1-6)]Man(a1-6)[GlcNAc(b1-4)][Gal(b1-4)GlcNAc(b1-2)Man(a1-3)]Man(b1-4)GlcNAc(b1-4)GlcNAc
In short: as §1

[10] = molecular target: Gal(b1-4)GlcNAc(b1-2)[Gal(b1-4)GlcNAc(b1-6)]Man(a1-6)[GlcNAc(b1-4)][Gal(b1-4)GlcNAc(b1-2)[Gal(b1-4)GlcNAc(b1-4)]Man(a1-3)]Man(b1-4)GlcNAc(b1-4)[Fuc(a1-6)]GlcNAc
In short: as §1

[11] = molecular target: Gal(b1-4)GlcNAc(b1-3)Gal(b1-3)GalNAc
In short: as §1

[12] = molecular target: Gal(b1-4)GlcNAc(b1-3)Gal(b1-3)GlcNAc
In short: as §1

[13] = molecular target: Gal(b1-4)GlcNAc(b1-3)Gal(b1-4)Glc
In short: as §1

[14] = molecular target: Gal(b1-4)GlcNAc(b1-3)Gal(b1-4)GlcNAc
In short: as §1

[15] = molecular target: Gal(b1-4)GlcNAc(b1-3)Gal(b1-4)GlcNAc(b1-2)Man(a1-3)[Gal(b1-4)GlcNAc(b1-3)Gal(b1-4)GlcNAc(b1-2)Man(a1-6)]Man(b1-4)GlcNAc(b1-4)GlcNAc
In short: as §1

[16] = molecular target: Gal(b1-4)GlcNAc(b1-3)Gal(b1-4)GlcNAc(b1-2)Man(a1-3)[Gal(b1-4)GlcNAc(b1-3)Gal(b1-4)GlcNAc(b1-2)Man(a1-6)]Man(b1-4)GlcNAc(b1-4)[Fuc(a1-6)]GlcNAc
In short: as §1

[17] = molecular target: Gal(b1-4)GlcNAc(b1-3)Gal(b1-4)GlcNAc(b1-2)[Gal(b1-4)GlcNAc(b1-3)Gal(b1-4)GlcNAc(b1-6)]Man(a1-6)[Gal(b1-4)GlcNAc(b1-3)Gal(b1-4)GlcNAc(b1-2)Man(a1-3)]Man(b1-4)GlcNAc(b1-4)GlcNAc
In short: as §1

[18] = molecular target: Gal(b1-4)GlcNAc(b1-3)Gal(b1-4)GlcNAc(b1-2)[Gal(b1-4)GlcNAc(b1-3)Gal(b1-4)GlcNAc(b1-6)]Man(a1-6)[Gal(b1-4)GlcNAc(b1-3)Gal(b1-4)GlcNAc(b1-2)Man(a1-3)]Man(b1-4)GlcNAc(b1-4)[Fuc(a1-6)]GlcNAc
In short: as §1

[19] = molecular target: Gal(b1-4)GlcNAc(b1-3)Gal(b1-4)GlcNAc(b1-3)Gal(b1-4)GlcNAc
In short: as §1

[20] = molecular target: Gal(b1-4)GlcNAc(b1-3)Gal(b1-4)GlcNAc(b1-3)Gal(b1-4)GlcNAc(b1-2)Man(a1-3)[Gal(b1-4)GlcNAc(b1-3)Gal(b1-4)GlcNAc(b1-3)Gal(b1-4)GlcNAc(b1-2)Man(a1-6)]Man(b1-4)GlcNAc(b1-4)GlcNAc
In short: as §1

[21] = molecular target: Gal(b1-4)GlcNAc(b1-3)Gal(b1-4)GlcNAc(b1-3)Gal(b1-4)GlcNAc(b1-2)Man(a1-3)[Gal(b1-4)GlcNAc(b1-3)Gal(b1-4)GlcNAc(b1-3)Gal(b1-4)GlcNAc(b1-2)Man(a1-6)]Man(b1-4)GlcNAc(b1-4)[Fuc(a1-6)]GlcNAc
In short: as §1

[22] = molecular target: Gal(b1-4)GlcNAc(b1-3)Gal(b1-4)GlcNAc(b1-3)Gal(b1-4)GlcNAc(b1-2)[Gal(b1-4)GlcNAc(b1-3)Gal(b1-4)GlcNAc(b1-3)Gal(b1-4)GlcNAc(b1-6)]Man(a1-6)[Gal(b1-4)GlcNAc(b1-3)Gal(b1-4)GlcNAc(b1-3)Gal(b1-4)GlcNAc(b1-2)Man(a1-3)]Man(b1-4)GlcNAc(b1-4)[Fuc(a1-6)]GlcNAc
In short: as §1

B1: DC-Sign-R (Homo sapiens), Q9H2X3 (protein)
chain: MSDSKEPRVQQLGLLEEDPTTSGIRLFPRDFQFQQIHGHKSSTGCLGHGALVLQLLSFMLLAGVLVAILVQVSKVPSSLSQEQSEQDAIYQNLTQLKAAVGELSEKSKLQEIYQELTQLKAAVGELPEKSKLQEIYQELTRLKAAVGELPEKSKLQEIYQELTRLKAAVGELPEKSKLQEIYQELTRLKAAVGELPEKSKLQEIYQELTELKAAVGELPEKSKLQEIYQELTQLKAAVGELPDQSKQQQIYQELTDLKTAFERLCRHCPKDWTFFQGNCYFMSNSQRNWHDSVTACQEVRAQLVVIKTAEEQNFLQLQTSRSNRFSWMGLSDLNQEGTWQWVDGSPLSPSFQRYWNSGEPNNSGNEDCAEFSGSGWNDNRCDVDNYWICKKPAACFRDE
glycan array binding signal (z-score) [1]: 0.399 | glycan array binding signal (z-score) [2]: 3 | glycan array binding signal (z-score) [3]: -0.804 | glycan array binding signal (z-score) [4]: -0.156 | glycan array binding signal (z-score) [5]: -0.27 | glycan array binding signal (z-score) [6]: -0.555 | glycan array binding signal (z-score) [7]: -0.33 | glycan array binding signal (z-score) [8]: -0.401 | glycan array binding signal (z-score) [9]: -0.77 | glycan array binding signal (z-score) [10]: -0.442 | glycan array binding signal (z-score) [11]: 0.359 | glycan array binding signal (z-score) [12]: -0.694 | glycan array binding signal (z-score) [13]: -0.514 | glycan array binding signal (z-score) [14]: -0.11 | glycan array binding signal (z-score) [15]: 0.398 | glycan array binding signal (z-score) [16]: -0.365 | glycan array binding signal (z-score) [17]: 3.03 | glycan array binding signal (z-score) [18]: -0.226 | glycan array binding signal (z-score) [19]: -0.561 | glycan array binding signal (z-score) [20]: 0.694 | glycan array binding signal (z-score) [21]: 0.712 | glycan array binding signal (z-score) [22]: 1.57
